In the supplement of paper PMC3334620:
Over roughly 33,000 sequences, “E-score (-0.5 to 0.5)” has its median near -0.0034; the highest 2% begin near 0.25. This is one part of the list.

target: T1, Yap3 (UniProt P38749); experiment: PBM E-score (8-mer binding enrichment) (E-score (-0.5 to 0.5)); higher = stronger / more preferred TF binding; conditions: protein concentration: 100 nM; construct: GST-full length
T1 sequence: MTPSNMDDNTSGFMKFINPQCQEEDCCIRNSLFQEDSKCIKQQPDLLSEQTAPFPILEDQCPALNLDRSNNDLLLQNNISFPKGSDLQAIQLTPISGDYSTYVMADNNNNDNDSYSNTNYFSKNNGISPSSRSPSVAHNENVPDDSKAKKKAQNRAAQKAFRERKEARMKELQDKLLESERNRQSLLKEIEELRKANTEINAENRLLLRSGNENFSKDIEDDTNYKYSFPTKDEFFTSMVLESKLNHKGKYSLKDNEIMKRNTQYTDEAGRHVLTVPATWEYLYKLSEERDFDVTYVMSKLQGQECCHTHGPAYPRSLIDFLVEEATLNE
Summary of the method: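 For each ungapped eight-base word taken together with its reverse complement, the Universal PBM Analysis Suite assigned an E-score. Binding data came from GST-tagged yeast transcription factors, applied at about 100-200 nM, on universal all-10-mer Agilent arrays made double-stranded by primer extension. Fluorescent anti-GST marked bound protein, and scans were normalised with masliner.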

Sequence	PBM E-score
CACAGGAA	0.00598
GCATTGAC	-0.0769
ACAATCGG	0.103
GGGTGTGA	-0.263
CCTCCGCA	-0.2
CATCCATA	0.128
TACCCATA	-0.00499
GCTAGCAC	-0.0793
GCAGCGGA	0.0629
AAGTGACA	0.177
GCACTCGC	-0.0885
GCTCCTCC	-0.294
CACCGCAA	0.134
AGACAAAA	0.0827
ATGCTGGA	0.0591
GAGCTTCC	0.0263
AACACGAC	0.0761
GGTGTTAC	-0.09
CCACCTCA	-0.101
ACTTAGCA	-0.0984
AATCTCAA	0.134
GGGATAGA	0.0132
GATGTGCC	-0.0417
GACCTGGC	-0.116
AACATGGA	0.0539

Some of the entries so far, in CSV form:
Sequence,PBM E-score
GCATTGAC,-0.0769
CCTCCGCA,-0.2
GCAGCGGA,0.0629
AACATGGA,0.0539

(listing goes on)

Sequence	PBM E-score
AACCCACA	0.0388
CCCGATCA	-0.27
CAGAATTC	-0.0196
CACAGTGG	-0.0278
GGACCGAC	-0.16
AAGAAGAC	0.0114
CGCAGACC	-0.287
ATCTTCTG	0.0431
CCCGACGC	-0.144
AGATAGCC	-0.173
AGGAGTAT	-0.0208
CCGATAGC	-0.203
AGTAACGG	0.0541
GGGATCAC	-0.211
CGGCCCTC	-0.266
AAGACGCG	-0.0599
ACACAATG	0.208
ACATCCGA	-0.0314
TAATGACA	0.197
CAAGGGGC	-0.123
ACCTGTTG	0.0774
GAGGCACC	-0.278
CGGTTCTC	-0.187
CCGCTACG	-0.213
CCACGTCC	-0.13

Sequence	PBM E-score
ACGACTTC	-0.058
GGCGTACA	-0.106
ATATTCAC	0.254
CAATTTAA	0.103
ACTGGTAG	-0.0187
CTGGGCAA	0.00899
CACTTATC	0.152
AAAATAGC	-0.0905
CAGCCTCA	-0.0498
ACTTTTTC	0.0431
CGTGTTGC	-0.00931
CGATCGCG	0.182
ACGGACAA	0.191
AGCAAACT	0.158
AGTAACTG	0.0876
CACACAAG	0.00224
AACTAATT	0.149
CGTCGTTA	-0.0771
GCTTTCTA	0.246
GTAGAACA	-0.21
GGCTGTTA	-0.0091
GGCGACCA	-0.3
ACAGCACT	-0.0309
CGAAGCAC	-0.0204
TATACATA	0.17

Sequence	PBM E-score
AAAACTGG	0.144
ACCTCGCC	-0.223
CGGGACAC	-0.162
CAATGTTA	0.0767
GTCGGACA	0.0371
TGGAGACA	0.155
TTCAAAAA	0.0865
TAAGCTTA	0.164
CAAGCAAA	0.00556
CCATCTGA	-0.0418
CACACATC	-0.0233
ACTGCATG	0.0758
TCAGTTAA	0.126
ACAGCATG	-0.0202
AATAGCCT	-0.113
CCAGTGTA	0.127
AGGATATA	0.161
GCTTTAGA	-0.0444
AGAATATG	0.224
GCCGTCAC	-0.0282
CTATTCTA	0.15
AACTTCCT	0.0408
CAGTAGAA	0.138
CGGGTGAC	-0.211
GCGACGCC	0.00425

Quoted from the listing:
CAAGCAAA – PBM E-score: 0.00556
AGAATATG – PBM E-score: 0.224

(cont.)

Sequence	PBM E-score
AATTGCGG	-0.0342
GTTCGAGA	0.0678
ATAAAGCC	-0.0888
ACTGGGGG	-0.324
CACAAGGA	0.00224
CCCTATAG	-0.057
GTAGTAAC	-0.0227
AACGCCGC	0.0161
CTGAGCAG	-0.0643
CTTACAAC	0.0598
CGTTTACC	0.15
GATCCAAC	-0.135
AGGTATCC	0.048
ACATACAC	0.139
CAAGAATG	0.0283
GATAACAC	0.195
CAGAACTC	-0.041
AATGATGG	0.203
AATTCCCG	-0.0337
ATGGTGAC	-0.232
AGGGACTA	-0.0104
CTTCATCA	0.0592
CGATAGGC	-0.0751
ATCAGGGC	-0.111
GGAGGAAA	-0.0738

Sequence	PBM E-score
GTGCTGCA	0.0289
GCGTGCGA	-0.144
GCTGACGA	0.123
CCCGGAGA	-0.117
CGTGAAAA	0.22
AGGAGGGA	-0.179
GTTTCAAA	0.103
AGGTCGCA	-0.0369
CGTAGTGA	-0.0881
ACGGCAGC	-0.018
ACATACTC	0.0688
AATGTAGC	0.0687
GACACCAC	-0.22
AGATAAAT	0.219
ATTGGGTG	0.174
ATTTTGCC	0.104
CACGCACG	-0.123
ACAGAGAT	0.0805
GTCCGGAA	-0.042
ACTAGGCA	-0.0459
CATCGTGG	-0.112
ACCGTGGG	-0.322
TGCAGTAA	0.116
AAAATCAA	0.19
AACACCGC	-0.0117

Sequence	PBM E-score
GGAACGCC	-0.131
ACGGCCTG	-0.215
CCACCTGA	0.105
ATTTGCAA	0.125
ATCACTAC	-0.073
TGTCTTAA	0.102
AGTTCGGA	0.0398
TAAAGAGA	0.108
GTCACTCA	0.104
CAGGCGGA	0.081
GCAGCTCA	-0.187
TGATAACA	0.258
CAGCGATC	-0.00682
ACTGCGTG	-0.215
GCAATCTA	0.0687
CCTATCTA	-0.118
AAAACCAG	0.112
ATGGAATA	0.248
CCTAGAAC	-0.00465
CGCCTCAG	-0.135
ATTTGATC	-0.0998
AATACCCC	-0.134
GATTGGAC	0.0901
TAATCCCA	0.0293
ATCCGTCG	0.0317

Sequence	PBM E-score
GCAACCAC	0.0149
ACGTTGCC	-0.0696
ACCCATTG	-0.136
CTGGTCTC	-0.304
GAACTGAC	-0.0453
ACAACGCA	0.0858
CCACTAAA	0.0547
AGTTGGAG	-0.0405
AATATCTC	0.263
ATATTGCG	0.145
GTCCTCGA	-0.0718
ACTCATTA	0.186
ACAGAGCA	0.0953
AGCAACAA	0.0864
ACGGTGAT	0.00964
CAACGCGC	0.249
GGATAAAC	0.0509
AAACTAGC	0.0132
AAAGCACA	0.152
AACCTGCA	0.037
GGTTACAA	0.232
AACGGGCG	-0.00658
AATACATA	0.199
AAGAAATC	-0.0352
GAGAATAA	0.193

Sequence	PBM E-score
CCCCGTGA	-0.239
CGCAGGTC	-0.353
GAGGGGTA	-0.191
GCTCATGA	-0.0127
AGAGCGAA	0.0221
CATTAGAC	-0.252
ATACCTAA	0.273
ATACGCCG	-0.0794
GGGTTTAC	0.0092
TATAAATA	0.301
GATCTCAA	0.0691
ACTGGCAC	-0.24
CTGAGACC	-0.164
GGATGGCC	-0.268
AGTGCCAA	-0.128
AGCGAGTA	0.238
AATAGTGA	0.0687
AGGGAGTG	-0.172
AGCACGTG	0.127
